Assay results from article PMC9246096, “Structure-activity relationship studies for inhibitors for vancomycin-resistant Enterococcus and human carbonic anhydrases” (Journal of Enzyme Inhibition and Medicinal Chemistry, 2022).

Chains of the proteins cited; added tags and fusions are not shown.
UniProt Q3XX77, entry or part of it: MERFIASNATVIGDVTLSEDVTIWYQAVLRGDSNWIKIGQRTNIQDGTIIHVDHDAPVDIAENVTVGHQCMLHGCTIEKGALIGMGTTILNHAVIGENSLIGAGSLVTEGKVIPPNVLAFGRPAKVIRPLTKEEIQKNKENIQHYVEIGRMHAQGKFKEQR

Target: E. faecium γ-CA (Efγ-CA) (Enterococcus faecium, UniProt Q3XX77)
Assay: biochemical
Conditions: recombinant Efγ-CA, Ki from IC50 via Cheng–Prusoff
Experimental: Both Efα-CA and Efγ-CA were recombinantly expressed and purified as follows. A pHis2 plasmid (GenScript) containing either the Efα-CA sequence or Efγ-CA sequence was used for the expression of hexa-histidine tagged protein in a bacterial culture. […] Starter cultures were grown at 37 °C with shaking at 225 rpm overnight. One litre of autoclaved Luria-Bertani broth containing 100 µg/mL ampicillin and 1 mM ZiCl2 was inoculated with a 10-ml aliquot of the starter culture and grown at 37 °C with shaking at 225 rpm to an OD of 0.8 before being cold shocked and induced with 500 µL of IPTG (1 M). The induced cultures were grown for 16 h at 17 °C with shaking at 225 rpm. Bacterial cell pellets were spun down at 4000 g for 20 min and resuspended in 1× PBS containing 0.5 mM TCEP, 5% glycerol, pH = 7.4 to which 5 mg lysozyme was added to aid in lysis. The resuspended bacterial cells were incubated on ice for 20 min and then lysed via sonication. […] Fractions that contained the desired protein, as determined by SDS-PAGE, were combined and subjected to TEV protease for His-tag cleavage. […]
The assay was performed according to previously published protocols. […] Ki values were determined from inputting the IC50 values into the Cheng–Prusoff equation[25] for Ki from catalytic inhibition constants.

In the case of `CC(=O)Nc1nnc(S(N)(=O)=O)s1` [AZM, acetazolamide, reference compound], the Ki is reported as 323 nM.
